We go through 7 molecules from the supplement of paper PMC10373366.

One test deals with A2780. As to the kind of experiment: cell growth inhibition ratio vs untreated control (CCK8); higher = stronger inhibition of cell viability. The note with it: 10 µM; 48 h. As for the experimental part: (§1)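 Natural product library (Topscience) screened at 10 µM final concentration for 48 h on ovarian cancer A2780 cells and patient-derived ovarian cancer cells (PDC) in 96-well plates; viability read by CCK8 and reported as inhibition ratio (%) relative to untreated control. Single-dose primary screen.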

For test [1], the system named is patient-derived ovarian cancer cells (PDC). The description is as above. The following applies: 10 µM; 48 h. On the procedure:
as §1

The list shows a part of the results. Many values rest on one well or one pass, so single values are uncertain.

On to `COc1cc(CNC(=O)CCCC/C=C/C(C)C)ccc1O` [Capsaicin], for which the “cell growth inhibition ratio” value with A2780 amounted to 21.8%; in test [1], 8.95%.
For `OCCc1ccc(O)cc1` [Tyrosol] the same measures were -3.64% and 3.69%.
For `CCCCC[C@H](O)CC(=O)CCc1ccc(O)c(OC)c1` [6-Gingerol] the same measures were 24.2% and -1.7%.
On to `O=C(/C=C/c1ccc(O)c2c1[C@H](C(=O)O)[C@@H](c1ccc(O)c(O)c1)O2)O[C@H](Cc1ccc(O)c(O)c1)C(=O)O` [lithospermic acid], for which the “cell growth inhibition ratio” value with A2780 is 7.44%; in test [1] it was -9.46%.
As to `CC(=O)O[C@@]12CO[C@@H]1C[C@H](O)[C@@]1(C)C(=O)[C@H](O)C3=C(C)[C@@H](OC(=O)[C@H](O)[C@@H](NC(=O)OC(C)(C)C)c4ccccc4)C[C@@](O)([C@@H](OC(=O)c4ccccc4)[C@H]21)C3(C)C` [Docetaxel trihydrate], the figures for the “cell growth inhibition ratio” value (in the test on A2780; in test [1]) were 82.9% and 58.7%, respectively.
Taken in the same sequence, the figures for `CC1(C)CC[C@]2(C(=O)O[C@@H]3O[C@H](CO)[C@@H](O)[C@H](O)[C@H]3O)CC[C@]3(C)C(=CC[C@@H]4[C@@]5(C)CC[C@H](O[C@@H]6O[C@H](C(=O)O)[C@@H](O)[C@H](O)[C@H]6O[C@@H]6O[C@H](CO)[C@@H](O)[C@H](O)[C@H]6O)C(C)(C)[C@@H]5CC[C@]43C)[C@@H]2C1` [GinsenosideRo] were 6.82% and -5.95%.
As for `C/C=C(/C)C(=O)O[C@H]1[C@H](OC(C)=O)[C@@]2(CO)C(CC1(C)C)C1=CCC3[C@@]4(C)CCC(O[C@@H]5O[C@H](C(=O)O)[C@@H](O[C@@H]6O[C@H](CO)[C@@H](O)[C@H](O)[C@H]6O)[C@H](O)[C@H]5O[C@@H]5O[C@H](CO)[C@@H](O)[C@H](O)[C@H]5O)[C@](C)(CO)C4CC[C@@]3(C)[C@]1(C)C[C@H]2O.C/C=C(\C)C(=O)O[C@H]1[C@H](OC(C)=O)[C@@]2(CO)C(CC1(C)C)C1=CCC3[C@@]4(C)CCC(O[C@@H]5O[C@H](C(=O)O)[C@@H](O[C@@H]6O[C@H](CO)[C@@H](O)[C@H](O)[C@H]6O)[C@H](O)[C@H]5O[C@@H]5O[C@H](CO)[C@@H](O)[C@H](O)[C@H]5O)[C@](C)(CO)C4CC[C@@]3(C)[C@]1(C)C[C@H]2O` (some centres undefined) [Escin], the “cell growth inhibition ratio” value with A2780 is 6.75%; in test [1], -3.16%.
